Consider two substances from paper doi:10.1101/2020.02.02.931477.

Protein sequences, listed by entry. Tags and fused reporters are not part of them.
UniProt Q8K0V4, whole entry: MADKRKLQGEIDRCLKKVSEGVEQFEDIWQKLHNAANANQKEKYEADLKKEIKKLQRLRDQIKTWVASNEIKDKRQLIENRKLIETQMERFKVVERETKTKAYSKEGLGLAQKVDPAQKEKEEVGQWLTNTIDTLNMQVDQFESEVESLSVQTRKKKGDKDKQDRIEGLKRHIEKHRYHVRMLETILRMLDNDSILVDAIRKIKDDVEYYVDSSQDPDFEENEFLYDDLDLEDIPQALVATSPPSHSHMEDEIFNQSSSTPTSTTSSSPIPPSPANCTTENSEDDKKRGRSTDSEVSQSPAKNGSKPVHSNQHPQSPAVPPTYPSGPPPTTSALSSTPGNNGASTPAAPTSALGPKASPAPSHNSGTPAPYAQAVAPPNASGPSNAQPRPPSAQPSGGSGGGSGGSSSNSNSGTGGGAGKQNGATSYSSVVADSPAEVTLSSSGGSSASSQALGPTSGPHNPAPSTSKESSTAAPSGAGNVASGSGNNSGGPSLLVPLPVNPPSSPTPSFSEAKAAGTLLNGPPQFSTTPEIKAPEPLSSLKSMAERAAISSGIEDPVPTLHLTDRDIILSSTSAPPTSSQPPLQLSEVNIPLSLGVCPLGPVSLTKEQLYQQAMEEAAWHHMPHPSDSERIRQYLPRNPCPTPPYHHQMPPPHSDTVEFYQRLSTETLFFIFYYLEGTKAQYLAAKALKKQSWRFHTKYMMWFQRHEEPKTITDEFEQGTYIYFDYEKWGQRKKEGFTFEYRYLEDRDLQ
UniProt A5YKK6, whole entry: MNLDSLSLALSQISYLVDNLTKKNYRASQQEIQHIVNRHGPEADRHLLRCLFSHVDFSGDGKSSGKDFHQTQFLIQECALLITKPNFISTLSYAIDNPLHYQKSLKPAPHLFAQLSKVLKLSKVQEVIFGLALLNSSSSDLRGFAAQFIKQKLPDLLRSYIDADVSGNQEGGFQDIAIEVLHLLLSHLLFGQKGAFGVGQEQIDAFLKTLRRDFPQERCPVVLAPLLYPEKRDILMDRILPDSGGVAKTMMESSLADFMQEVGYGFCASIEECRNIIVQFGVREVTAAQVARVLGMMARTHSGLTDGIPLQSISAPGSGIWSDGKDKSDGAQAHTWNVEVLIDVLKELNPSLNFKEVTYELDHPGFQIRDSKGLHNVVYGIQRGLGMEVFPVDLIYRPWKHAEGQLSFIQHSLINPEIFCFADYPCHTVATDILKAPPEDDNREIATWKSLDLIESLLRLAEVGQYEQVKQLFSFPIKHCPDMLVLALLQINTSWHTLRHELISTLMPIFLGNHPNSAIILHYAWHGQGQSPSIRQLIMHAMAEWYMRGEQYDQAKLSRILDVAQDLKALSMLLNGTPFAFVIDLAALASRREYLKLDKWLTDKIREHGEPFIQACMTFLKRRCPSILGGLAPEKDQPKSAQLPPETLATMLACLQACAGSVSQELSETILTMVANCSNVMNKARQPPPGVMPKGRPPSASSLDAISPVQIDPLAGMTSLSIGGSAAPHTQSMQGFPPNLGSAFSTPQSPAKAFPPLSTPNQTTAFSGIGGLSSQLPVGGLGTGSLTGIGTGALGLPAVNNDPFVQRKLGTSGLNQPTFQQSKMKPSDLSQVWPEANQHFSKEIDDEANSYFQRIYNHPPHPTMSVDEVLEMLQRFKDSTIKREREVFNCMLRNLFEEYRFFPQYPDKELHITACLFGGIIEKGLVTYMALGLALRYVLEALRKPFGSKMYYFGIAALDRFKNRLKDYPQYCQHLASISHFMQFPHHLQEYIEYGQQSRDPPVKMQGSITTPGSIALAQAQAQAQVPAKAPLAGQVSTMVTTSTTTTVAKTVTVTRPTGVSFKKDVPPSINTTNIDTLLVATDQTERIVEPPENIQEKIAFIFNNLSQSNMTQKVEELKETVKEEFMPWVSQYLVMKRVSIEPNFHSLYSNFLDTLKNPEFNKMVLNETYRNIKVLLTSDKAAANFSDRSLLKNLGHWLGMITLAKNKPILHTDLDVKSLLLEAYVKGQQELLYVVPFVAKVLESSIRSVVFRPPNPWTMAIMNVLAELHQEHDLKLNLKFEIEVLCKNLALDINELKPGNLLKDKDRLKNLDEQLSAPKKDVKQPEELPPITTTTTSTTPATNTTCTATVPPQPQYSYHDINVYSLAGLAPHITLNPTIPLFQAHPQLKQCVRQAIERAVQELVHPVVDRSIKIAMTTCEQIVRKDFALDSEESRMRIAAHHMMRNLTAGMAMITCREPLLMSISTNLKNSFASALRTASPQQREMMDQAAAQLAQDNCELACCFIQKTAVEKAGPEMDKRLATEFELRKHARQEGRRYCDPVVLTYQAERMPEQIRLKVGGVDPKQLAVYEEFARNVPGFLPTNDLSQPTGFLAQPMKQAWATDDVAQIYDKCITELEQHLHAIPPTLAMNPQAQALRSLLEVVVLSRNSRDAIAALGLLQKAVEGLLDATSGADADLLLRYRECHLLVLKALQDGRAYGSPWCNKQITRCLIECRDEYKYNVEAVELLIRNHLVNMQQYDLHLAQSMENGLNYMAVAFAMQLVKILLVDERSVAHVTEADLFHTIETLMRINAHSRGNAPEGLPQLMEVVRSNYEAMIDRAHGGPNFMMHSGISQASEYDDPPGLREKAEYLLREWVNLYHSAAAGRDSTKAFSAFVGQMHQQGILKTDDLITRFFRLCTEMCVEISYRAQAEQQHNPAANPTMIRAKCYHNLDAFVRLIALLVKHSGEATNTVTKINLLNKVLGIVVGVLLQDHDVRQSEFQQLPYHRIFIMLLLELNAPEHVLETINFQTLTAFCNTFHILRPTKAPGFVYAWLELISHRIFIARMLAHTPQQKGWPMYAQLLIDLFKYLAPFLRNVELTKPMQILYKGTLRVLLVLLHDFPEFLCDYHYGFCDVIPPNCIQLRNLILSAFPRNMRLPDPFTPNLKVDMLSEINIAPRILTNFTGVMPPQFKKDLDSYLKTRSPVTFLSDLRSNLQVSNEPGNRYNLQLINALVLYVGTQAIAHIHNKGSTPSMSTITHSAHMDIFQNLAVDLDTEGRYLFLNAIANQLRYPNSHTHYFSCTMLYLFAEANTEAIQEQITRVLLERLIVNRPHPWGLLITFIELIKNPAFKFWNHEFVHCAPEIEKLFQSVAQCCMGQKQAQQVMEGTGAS

This test deals with T1, HA-tagged mouse Bicc1 (wild type) (mouse) (UniProt Q99MQ1).
T1 sequence: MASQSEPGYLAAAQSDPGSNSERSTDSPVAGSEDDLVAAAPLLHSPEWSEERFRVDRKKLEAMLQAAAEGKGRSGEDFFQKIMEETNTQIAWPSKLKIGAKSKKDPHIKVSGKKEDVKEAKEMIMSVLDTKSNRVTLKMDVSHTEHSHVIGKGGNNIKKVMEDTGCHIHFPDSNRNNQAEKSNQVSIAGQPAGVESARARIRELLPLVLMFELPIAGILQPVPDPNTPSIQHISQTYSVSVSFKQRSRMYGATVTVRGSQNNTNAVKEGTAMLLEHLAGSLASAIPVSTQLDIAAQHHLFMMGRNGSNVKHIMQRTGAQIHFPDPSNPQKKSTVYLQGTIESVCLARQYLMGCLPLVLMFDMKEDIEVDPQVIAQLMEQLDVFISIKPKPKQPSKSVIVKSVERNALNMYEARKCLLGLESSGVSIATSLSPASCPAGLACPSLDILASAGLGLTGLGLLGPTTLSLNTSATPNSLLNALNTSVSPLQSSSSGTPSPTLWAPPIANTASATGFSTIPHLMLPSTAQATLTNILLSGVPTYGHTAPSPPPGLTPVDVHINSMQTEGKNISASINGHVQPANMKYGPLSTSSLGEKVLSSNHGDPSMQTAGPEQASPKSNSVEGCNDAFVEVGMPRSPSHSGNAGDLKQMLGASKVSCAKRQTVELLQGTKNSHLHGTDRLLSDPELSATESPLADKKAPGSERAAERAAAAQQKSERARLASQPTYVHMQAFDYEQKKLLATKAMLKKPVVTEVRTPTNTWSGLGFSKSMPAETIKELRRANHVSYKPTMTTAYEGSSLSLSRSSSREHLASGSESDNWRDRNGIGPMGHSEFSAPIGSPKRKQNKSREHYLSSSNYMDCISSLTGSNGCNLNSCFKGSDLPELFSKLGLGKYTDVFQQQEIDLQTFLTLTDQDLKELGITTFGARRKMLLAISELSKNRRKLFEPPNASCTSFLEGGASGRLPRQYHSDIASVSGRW
The experiment in a line: co-IP.

Results are given in words; binding and its absence hold for the method and conditions named. In cells and extracts the contact can be indirect. Some binding calls cover weakened binding; strength is not graded here. Sequences can lack the tags named with a protein.

Consider “FLAG-tagged mouse Cnot3 (Cnot3-Myc-Flag) (from UniProt Q8K0V4 1-751)”, for which the binding result is listed as “binds”. Under “endogenous Cnot1 (from UniProt A5YKK6 1-2376)” stands “binds”.
